The list shows a part of the results.
What was measured:
Test in all cases: log2 fold change, soluble protein after heating vs DMSO (PISA); higher = thermal stabilisation; K562 lysate, 10 uM; active = over 0.2 and 3.5 SD of the protein, either way, in both replicates (recomputed)
[1] = compound: C=CC(=O)N1CCC[C@@H](n2nc(-c3ccc(Oc4ccccc4)cc3)c3c(N)ncnc32)C1 [ibrutinib]
Outline: (§1)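 A 30 min treatment with 10 μM compound was applied to crude K562 extract at 1 mg/mL protein in PBS pH 7.4 with 1 mM MgCl2. Heating for 3 min spanned 48°C-58°C, after which aliquots were pooled, adjusted to 0.5% NP-40 at 4°C and spun at 21,000xg for 90 min. TMTpro 16plex LC-MS/MS of the supernatant, with channel sums equalised, gave values recorded as log-two fold change in thermal stability against solvent controls, from duplicates.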

The chains behind the UniProt entries cited, without tags or fusion partners. Where a name states a change or a piece, a line headed by the entry shows the natural chain unless it says otherwise.
UniProt Q6PCD5: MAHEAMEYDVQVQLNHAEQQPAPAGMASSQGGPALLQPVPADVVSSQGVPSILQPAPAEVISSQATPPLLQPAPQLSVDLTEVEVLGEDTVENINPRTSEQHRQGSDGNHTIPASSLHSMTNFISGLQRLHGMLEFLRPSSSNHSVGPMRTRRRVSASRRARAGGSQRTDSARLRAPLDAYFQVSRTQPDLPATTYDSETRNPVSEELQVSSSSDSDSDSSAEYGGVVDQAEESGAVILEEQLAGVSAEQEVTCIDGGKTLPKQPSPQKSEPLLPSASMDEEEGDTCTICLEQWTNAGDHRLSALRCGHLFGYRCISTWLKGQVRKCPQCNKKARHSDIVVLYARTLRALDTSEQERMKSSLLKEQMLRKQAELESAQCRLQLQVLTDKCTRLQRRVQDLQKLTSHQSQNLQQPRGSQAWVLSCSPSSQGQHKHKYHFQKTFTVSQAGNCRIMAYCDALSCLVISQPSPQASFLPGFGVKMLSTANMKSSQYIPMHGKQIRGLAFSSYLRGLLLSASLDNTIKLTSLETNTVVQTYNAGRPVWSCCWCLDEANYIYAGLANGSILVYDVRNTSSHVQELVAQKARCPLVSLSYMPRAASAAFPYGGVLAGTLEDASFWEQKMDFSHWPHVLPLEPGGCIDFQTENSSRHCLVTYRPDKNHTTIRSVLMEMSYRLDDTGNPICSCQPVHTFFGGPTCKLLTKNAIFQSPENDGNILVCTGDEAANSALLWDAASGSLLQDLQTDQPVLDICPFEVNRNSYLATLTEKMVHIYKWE
UniProt P53805: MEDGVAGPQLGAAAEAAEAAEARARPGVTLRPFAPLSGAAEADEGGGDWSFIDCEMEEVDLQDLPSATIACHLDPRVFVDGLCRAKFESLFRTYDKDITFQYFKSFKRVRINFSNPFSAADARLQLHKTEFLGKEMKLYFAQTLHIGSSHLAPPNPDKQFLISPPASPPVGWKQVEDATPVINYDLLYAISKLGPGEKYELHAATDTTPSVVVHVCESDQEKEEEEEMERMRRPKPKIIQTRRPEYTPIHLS
UniProt Q5T481: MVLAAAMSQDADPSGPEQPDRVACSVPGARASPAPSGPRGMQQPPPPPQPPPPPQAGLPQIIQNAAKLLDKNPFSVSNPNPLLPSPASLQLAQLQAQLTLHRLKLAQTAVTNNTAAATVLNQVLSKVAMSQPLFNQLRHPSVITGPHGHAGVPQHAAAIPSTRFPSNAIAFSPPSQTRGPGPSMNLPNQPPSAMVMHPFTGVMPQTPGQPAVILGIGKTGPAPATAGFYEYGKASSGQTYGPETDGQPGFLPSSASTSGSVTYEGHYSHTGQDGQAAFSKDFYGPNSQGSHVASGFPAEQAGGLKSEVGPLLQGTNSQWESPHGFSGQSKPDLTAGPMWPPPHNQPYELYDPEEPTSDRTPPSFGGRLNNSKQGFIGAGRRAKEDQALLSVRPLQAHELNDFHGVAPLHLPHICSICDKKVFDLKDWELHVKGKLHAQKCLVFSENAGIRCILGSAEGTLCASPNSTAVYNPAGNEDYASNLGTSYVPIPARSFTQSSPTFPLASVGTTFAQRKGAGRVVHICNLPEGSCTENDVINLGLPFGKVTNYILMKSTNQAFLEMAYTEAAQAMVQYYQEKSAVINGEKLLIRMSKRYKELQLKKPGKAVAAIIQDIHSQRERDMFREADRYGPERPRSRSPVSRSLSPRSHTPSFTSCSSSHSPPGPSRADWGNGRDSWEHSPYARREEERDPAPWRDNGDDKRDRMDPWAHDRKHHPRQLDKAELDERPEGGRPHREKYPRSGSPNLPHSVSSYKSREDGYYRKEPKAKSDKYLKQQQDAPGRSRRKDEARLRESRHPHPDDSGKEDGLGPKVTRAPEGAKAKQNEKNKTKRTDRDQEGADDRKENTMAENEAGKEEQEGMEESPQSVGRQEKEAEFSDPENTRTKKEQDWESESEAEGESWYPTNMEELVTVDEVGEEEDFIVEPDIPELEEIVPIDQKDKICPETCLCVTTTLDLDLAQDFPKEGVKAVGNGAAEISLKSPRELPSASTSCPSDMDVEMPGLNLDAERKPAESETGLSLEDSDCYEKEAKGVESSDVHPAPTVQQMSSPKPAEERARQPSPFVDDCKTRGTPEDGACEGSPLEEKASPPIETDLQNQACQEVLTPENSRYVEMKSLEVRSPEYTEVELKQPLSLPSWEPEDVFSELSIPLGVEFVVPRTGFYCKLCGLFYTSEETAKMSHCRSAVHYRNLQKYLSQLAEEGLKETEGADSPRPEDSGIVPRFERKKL
UniProt Q14644: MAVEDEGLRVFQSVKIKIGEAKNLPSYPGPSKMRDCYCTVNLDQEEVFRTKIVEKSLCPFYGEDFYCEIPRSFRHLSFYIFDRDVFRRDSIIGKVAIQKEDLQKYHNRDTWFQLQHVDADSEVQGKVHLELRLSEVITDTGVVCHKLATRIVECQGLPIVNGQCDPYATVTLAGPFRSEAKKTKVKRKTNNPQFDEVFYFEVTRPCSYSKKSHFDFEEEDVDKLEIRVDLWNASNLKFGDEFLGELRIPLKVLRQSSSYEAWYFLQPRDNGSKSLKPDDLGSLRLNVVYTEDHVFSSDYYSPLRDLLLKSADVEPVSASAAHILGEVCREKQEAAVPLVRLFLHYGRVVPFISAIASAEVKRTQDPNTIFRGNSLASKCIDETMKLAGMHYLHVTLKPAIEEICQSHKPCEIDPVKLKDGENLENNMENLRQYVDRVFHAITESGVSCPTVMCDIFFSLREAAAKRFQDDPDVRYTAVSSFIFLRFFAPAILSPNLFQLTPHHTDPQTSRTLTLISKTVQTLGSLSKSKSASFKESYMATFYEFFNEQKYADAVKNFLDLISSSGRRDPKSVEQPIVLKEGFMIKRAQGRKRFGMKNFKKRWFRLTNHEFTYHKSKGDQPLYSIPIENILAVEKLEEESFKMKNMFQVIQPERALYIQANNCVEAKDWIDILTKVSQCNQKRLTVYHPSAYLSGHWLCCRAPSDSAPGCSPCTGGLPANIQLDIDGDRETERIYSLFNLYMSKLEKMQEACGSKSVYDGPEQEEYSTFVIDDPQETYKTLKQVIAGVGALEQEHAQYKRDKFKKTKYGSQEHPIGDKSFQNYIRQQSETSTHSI
UniProt Q8IUW5: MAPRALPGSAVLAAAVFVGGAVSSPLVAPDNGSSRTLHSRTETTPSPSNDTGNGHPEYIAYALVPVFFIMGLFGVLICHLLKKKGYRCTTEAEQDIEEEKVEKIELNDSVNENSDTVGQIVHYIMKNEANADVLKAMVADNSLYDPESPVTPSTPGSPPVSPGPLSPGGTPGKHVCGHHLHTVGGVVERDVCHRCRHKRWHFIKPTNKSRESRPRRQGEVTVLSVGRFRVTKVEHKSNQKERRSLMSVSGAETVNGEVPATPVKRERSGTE
UniProt Q8N0V3: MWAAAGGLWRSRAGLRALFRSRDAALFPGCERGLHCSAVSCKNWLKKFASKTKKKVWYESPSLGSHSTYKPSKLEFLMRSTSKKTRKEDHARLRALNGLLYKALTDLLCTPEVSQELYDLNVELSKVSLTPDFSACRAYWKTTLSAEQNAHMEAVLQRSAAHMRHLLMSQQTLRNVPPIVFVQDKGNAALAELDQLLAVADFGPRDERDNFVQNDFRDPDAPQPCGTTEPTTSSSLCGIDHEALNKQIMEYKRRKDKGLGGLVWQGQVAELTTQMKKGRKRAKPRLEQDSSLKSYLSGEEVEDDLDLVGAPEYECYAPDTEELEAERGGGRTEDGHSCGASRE
UniProt Q86WH2: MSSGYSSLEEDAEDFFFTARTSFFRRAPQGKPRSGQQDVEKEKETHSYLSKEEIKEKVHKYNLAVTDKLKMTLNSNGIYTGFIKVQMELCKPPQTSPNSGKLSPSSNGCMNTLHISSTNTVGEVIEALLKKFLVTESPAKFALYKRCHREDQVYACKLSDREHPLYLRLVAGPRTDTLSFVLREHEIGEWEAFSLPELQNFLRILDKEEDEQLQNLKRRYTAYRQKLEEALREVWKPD
UniProt Q02161: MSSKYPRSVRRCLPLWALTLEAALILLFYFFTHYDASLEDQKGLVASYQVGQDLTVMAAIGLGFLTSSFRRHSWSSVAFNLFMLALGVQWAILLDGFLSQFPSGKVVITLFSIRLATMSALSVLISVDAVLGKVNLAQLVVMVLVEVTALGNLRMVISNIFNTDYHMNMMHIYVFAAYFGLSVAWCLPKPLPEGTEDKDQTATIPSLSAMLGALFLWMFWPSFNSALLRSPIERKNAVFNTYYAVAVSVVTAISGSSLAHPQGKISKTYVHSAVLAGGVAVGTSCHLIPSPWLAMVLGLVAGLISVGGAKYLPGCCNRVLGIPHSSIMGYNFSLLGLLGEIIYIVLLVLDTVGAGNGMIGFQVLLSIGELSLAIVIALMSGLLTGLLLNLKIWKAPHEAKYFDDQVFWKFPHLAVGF
UniProt Q9H4X1: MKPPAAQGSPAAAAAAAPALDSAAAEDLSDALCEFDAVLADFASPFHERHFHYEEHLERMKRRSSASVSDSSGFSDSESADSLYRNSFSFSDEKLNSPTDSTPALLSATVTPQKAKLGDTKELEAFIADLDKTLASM
UniProt Q8TC12: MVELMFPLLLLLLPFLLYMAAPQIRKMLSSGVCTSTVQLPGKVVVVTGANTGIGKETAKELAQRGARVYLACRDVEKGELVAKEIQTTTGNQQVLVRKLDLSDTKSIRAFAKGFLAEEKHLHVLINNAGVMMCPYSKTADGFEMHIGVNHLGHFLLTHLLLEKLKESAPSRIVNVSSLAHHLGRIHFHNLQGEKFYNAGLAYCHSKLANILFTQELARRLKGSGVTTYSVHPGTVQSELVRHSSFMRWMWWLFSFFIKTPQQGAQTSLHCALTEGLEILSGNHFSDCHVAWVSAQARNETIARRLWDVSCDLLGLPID
UniProt P49795: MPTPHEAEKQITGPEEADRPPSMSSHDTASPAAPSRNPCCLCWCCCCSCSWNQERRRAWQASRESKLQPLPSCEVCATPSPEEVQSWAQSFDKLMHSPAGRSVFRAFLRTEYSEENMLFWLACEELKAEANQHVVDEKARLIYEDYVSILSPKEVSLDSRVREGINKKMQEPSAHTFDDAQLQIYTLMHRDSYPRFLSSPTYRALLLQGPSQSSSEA
UniProt Q9HBD1: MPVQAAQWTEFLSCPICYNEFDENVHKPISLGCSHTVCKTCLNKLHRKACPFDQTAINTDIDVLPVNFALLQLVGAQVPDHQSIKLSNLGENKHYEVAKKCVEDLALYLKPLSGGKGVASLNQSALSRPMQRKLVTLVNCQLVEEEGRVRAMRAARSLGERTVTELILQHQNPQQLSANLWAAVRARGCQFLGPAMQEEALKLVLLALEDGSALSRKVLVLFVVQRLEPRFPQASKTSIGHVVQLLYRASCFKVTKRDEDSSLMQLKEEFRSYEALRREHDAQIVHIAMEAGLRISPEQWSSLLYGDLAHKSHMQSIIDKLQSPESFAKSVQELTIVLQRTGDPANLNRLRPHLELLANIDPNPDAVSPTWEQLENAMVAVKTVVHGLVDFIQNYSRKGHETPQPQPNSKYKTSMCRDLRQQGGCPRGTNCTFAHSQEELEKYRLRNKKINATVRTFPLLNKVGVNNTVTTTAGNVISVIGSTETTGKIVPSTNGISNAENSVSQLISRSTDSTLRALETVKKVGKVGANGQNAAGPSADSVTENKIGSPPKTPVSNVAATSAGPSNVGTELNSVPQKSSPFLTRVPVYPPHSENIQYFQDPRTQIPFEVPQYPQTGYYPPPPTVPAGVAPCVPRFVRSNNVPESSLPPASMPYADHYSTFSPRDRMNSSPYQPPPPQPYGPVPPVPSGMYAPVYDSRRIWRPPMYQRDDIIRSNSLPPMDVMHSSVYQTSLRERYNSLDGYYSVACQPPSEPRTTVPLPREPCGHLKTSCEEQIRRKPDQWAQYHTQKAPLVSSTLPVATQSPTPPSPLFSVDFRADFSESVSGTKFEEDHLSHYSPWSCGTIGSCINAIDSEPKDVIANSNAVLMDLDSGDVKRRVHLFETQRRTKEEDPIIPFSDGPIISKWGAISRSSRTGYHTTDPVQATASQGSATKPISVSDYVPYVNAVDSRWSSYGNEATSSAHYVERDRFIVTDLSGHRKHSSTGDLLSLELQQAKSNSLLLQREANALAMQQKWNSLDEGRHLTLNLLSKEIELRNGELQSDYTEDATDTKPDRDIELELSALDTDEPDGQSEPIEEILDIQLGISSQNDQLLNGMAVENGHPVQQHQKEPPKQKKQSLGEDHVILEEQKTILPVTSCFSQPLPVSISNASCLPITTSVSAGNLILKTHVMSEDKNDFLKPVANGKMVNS
UniProt Q9H477: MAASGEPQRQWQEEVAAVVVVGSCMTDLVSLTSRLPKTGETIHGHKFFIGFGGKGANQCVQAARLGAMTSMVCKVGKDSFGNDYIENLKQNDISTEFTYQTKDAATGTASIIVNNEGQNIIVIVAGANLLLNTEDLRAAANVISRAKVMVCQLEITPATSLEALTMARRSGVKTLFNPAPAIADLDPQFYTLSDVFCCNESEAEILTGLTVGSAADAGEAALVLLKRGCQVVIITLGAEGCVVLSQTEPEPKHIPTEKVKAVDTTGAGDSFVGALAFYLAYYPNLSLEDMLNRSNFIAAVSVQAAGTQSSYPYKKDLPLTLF

[2] = compound: CC(=O)c1cnc2ccc(-c3cc(Cl)c(O)c(Cl)c3)nc2c1N[C@H]1CC[C@H](CN(C)C)CC1
Outline: as §1

[3] = compound: CC1=CC=C(C=C1)SC2=C3C=C(SC3=CN=C2)C(=O)N
Outline: as §1

[4] = compound: CC(C)(C)Cn1c(N)nc2ccc(-c3[nH]c(C(C)(C)C)nc3-c3ccc(F)cc3)nc21 [ralimetinib]
Outline: as §1

[5] = compound: CC(C)(O)CC(=O)NCCn1ccc2ncnc(Nc3ccc(Oc4cccc(C(F)(F)F)c4)c(Cl)c3)c21
Outline: as §1

[6] = compound: CC(C)C1=C2N=C(C=C(N2N=C1)NCC3=CC=CC=C3)NCCCCCCN
Outline: as §1

[7] = compound: CC1=C(C(CC(=O)N1)C2=CC=C(C=C2)C(F)(F)F)C(=O)NC3=C(C=C4C(=C3)C=NN4)F
Outline: as §1

[8] = compound: CC1=C(C2=C(C=C1)C(=O)C3=CC=CC=C3N2CCCN)C
Outline: as §1

[9] = compound: CC1=C(C=C(C=C1)NC(=O)C2=CC(=CC=C2)C(C)(C)C#N)NC3=CC4=C(C=C3)N=CN(C4=O)C
Outline: as §1

[10] = compound: CC1=C(C=C(C=C1)NC(=O)C2=CC(=CC=C2)N(C)C)NC(=O)C3=CC=C(C=C3)O
Outline: as §1

Measured: log2 fold change

RHBDD1 (UniProt Q8TEB9)
inactive: [1] -0.059 | [3] 0.038
active: [2] -0.518

RFWD3 (UniProt Q6PCD5)
inactive: [1] -0.001 | [4] 0.039 | [5] -0.059 | [6] 0.066 | [7] 0.059 | [8] -0.06 | [9] 0.087 | [10] -0.007

RFX3 (UniProt P48380)
inactive: [1] -0.053 | [7] -0.033 | [8] 0.028

RCAN1 (UniProt P53805)
inactive: [1] -0.019 | [2] 0.003 | [4] -0.004 | [5] 0.012 | [6] 0.002 | [7] 0.026 | [8] -0.027 | [9] 0.085 | [10] -0.02 | [3] 0.02

RBM20 (UniProt Q5T481)
inactive: [1] -0.051 | [4] 0.113 | [5] -0.351 | [6] 0.024 | [7] -0.017 | [8] -0.022 | [10] -0.41

RGS3 (UniProt P49796)
inactive: [1] 0.116 | [2] 0.083 | [4] 0.072 | [5] 0.048 | [6] 0.038 | [7] -0.087 | [9] -0.001 | [10] -0.024 | [3] -0.023

REXO1 (UniProt Q8N1G1)
inactive: [1] -0.01 | [4] -0.01 | [5] -0.03 | [6] 0.034 | [7] 0.11 | [9] 0.09 | [10] 0.182

REEP3 (UniProt Q6NUK4)
inactive: [1] 0.105 | [2] 0.037 | [4] 0.072 | [5] 0.073 | [6] -0.035 | [7] -0.017 | [9] -0.01 | [10] -0.007 | [3] 0.047

RASA3 (UniProt Q14644)
inactive: [1] 0 | [2] -0.031 | [4] -0.012 | [5] -0.054 | [6] 0.02 | [7] -0.048 | [8] 0.031 | [9] -0.026 | [10] -0.018 | [3] -0.078

RBP5 (UniProt P82980)
inactive: [2] -0.077 | [4] 0.015 | [5] -0.109 | [6] 0.065 | [7] 0.138 | [8] 0.031 | [9] -0.153 | [10] 0.072 | [3] 0.084

RELL1 (UniProt Q8IUW5)
inactive: [6] 0.073 | [9] 0.088

RBMX2 (UniProt Q9Y388)
inactive: [2] -0.004 | [6] 0.122 | [8] -0.034 | [3] 0.06

REST (UniProt Q13127)
inactive: [2] -0.016 | [4] -0.064 | [5] -0.025 | [6] -0.472 | [8] -0.014 | [9] 0.143 | [10] -0.014 | [3] -0.059

RGPD6 (UniProt H7BZ48)
inactive: [9] 0.011

RBBP7 (UniProt C9J7L0)
inactive: [7] -0.187

RASGRP2 isoform 2 (UniProt Q7LDG7)
inactive: [7] 0.029

RCOR2 (UniProt Q8IZ40)
inactive: [4] -0.021 | [5] -0.04 | [10] -0.022

RBM18 (UniProt Q96H35)
inactive: [4] 0.036 | [5] -0.018 | [7] -0.277 | [10] 0.035

RBM4 isoform 3 (UniProt Q9BWF3)
inactive: [9] -0.092

RBM45 (UniProt Q8IUH3)
active: [3] 0.487
inactive: [2] -0.077 | [7] -0.127 | [9] 0.038

RBFA (UniProt Q8N0V3)
inactive: [4] 0.046 | [5] 0.037 | [6] -0.111 | [7] -0.127 | [9] 0.121 | [10] -0.041

RASSF3 (UniProt Q86WH2)
inactive: [2] 0.128 | [9] -0.072 | [3] 0.142

RHD (UniProt Q02161)
inactive: [4] -0.016 | [5] -0.141 | [8] 0.06 | [10] -0.052

RGCC (UniProt Q9H4X1)
inactive: [4] 0.03 | [5] -0.07 | [6] -0.119 | [10] 0.025

RDH11 (UniProt Q8TC12)
inactive: [2] -0.021 | [4] 0.005 | [5] -0.043 | [6] 0.068 | [7] -0.013 | [8] -0.039 | [9] -0.037 | [10] -0.039 | [3] -0.111

RGS19 (UniProt P49795)
inactive: [7] 0.045 | [9] -0.059

RHBDD2 isoform 2 (UniProt Q6NTF9)
inactive: [4] 0.012 | [5] 0.019 | [6] -0.221 | [10] 0.05

RBM47
inactive: [2] 0.144 | [4] 0.021 | [5] -0.114 | [6] -0.072 | [7] -0.069 | [8] -0.054 | [10] 0.065 | [3] -0.017

RBM38 (UniProt Q9H0Z9)
inactive: [2] -0.02 | [4] -0.055 | [5] 0.007 | [6] -0.016 | [7] -0.017 | [8] -0.016 | [9] -0.136 | [10] -0.068 | [3] -0.053

RELCH (UniProt Q9P260)
inactive: [2] -0.182 | [8] -0.087 | [9] -0.088 | [3] -0.17

RHBDD3 (UniProt Q9Y3P4)
inactive: [9] -0.077

RBM4B (UniProt Q9BQ04)
inactive: [9] 0.04

RC3H2 (UniProt Q9HBD1)
inactive: [2] -0.146 | [4] 0.128 | [5] -0.051 | [8] -0.088 | [9] -0.015 | [10] -0.177 | [3] 0.083

Random excerpt: two entries already listed, in no set order.
RGS3 (UniProt P49796)
inactive: [1] 0.116 | [2] 0.083 | [4] 0.072 | [5] 0.048 | [6] 0.038 | [7] -0.087 | [9] -0.001 | [10] -0.024 | [3] -0.023

RHBDD1 (UniProt Q8TEB9)
inactive: [1] -0.059 | [3] 0.038
active: [2] -0.518

Continuation.

RBKS (UniProt Q9H477)
inactive: [4] 0.027 | [5] -0.189 | [8] -0.146 | [10] 0.404

RESF1 (UniProt Q9HCM1)
inactive: [4] -0.016 | [5] 0.044 | [8] 0.025 | [9] 0.144 | [10] 0.021

REX1BD (UniProt Q96EN9)
inactive: [4] 0.014 | [5] -0.015 | [6] 0.007 | [7] -0.112 | [8] -0.095 | [9] -0.04 | [10] 0.031

RAVER2 (UniProt Q9HCJ3)
inactive: [4] -0.056 | [5] -0.039 | [6] -0.107 | [8] -0.076 | [9] 0.066 | [10] -0.041

RBM48 isoform 2 (UniProt Q5RL73)
inactive: [4] -0.008 | [5] -0.05 | [6] 0.006 | [8] -0.11 | [9] -0.005 | [10] 0.013

RBMXL1 (UniProt Q96E39)
inactive: [8] -0.111 | [9] -0.054

RBBP4 isoform 4 (UniProt Q09028)
inactive: [2] 0.155 | [4] 0.145 | [5] 0.101 | [7] 0.045 | [10] -0.026 | [3] -0.031

RCBTB1 (UniProt Q8NDN9)
inactive: [4] 0.041 | [5] -0.239 | [6] 0.213 | [7] -0.046 | [9] -0.107 | [10] 0.045

RFNG (UniProt Q9Y644)
inactive: [7] 0.023
